{"source": "patent US20170157250A1", "key": {"[1]": {"biological_target": "human AXL with a cynomolgus monkey extracellular domain (ECD) (cynomolgus monkey (Macaca fascicularis); human (Homo sapiens))", "test": "flow cytometry, HEK293T cells transfected with human AXL with cynomolgus ECD"}, "[2]": {"biological_target": "Homo sapiens AXL-Mus musculus Ig1 domain (p33-AXL-mIg1) (human-mouse chimera)", "test": "flow cytometry, 1 µg/mL antibody, HEK293F cells expressing hsAxl-mmIg1 (human AXL with the mouse Ig1 domain), PE-anti-human IgG"}}, "note": "Results are given in words; binding and its absence hold for the method and conditions named. Binding can be weak; no strength is given."}
{"binder": "IgG1-AXL-148 (antibody, V domains shown) VH: EVQLLESGGGLVQPGGSLRLSCAASGFTFSSYAMTWVRQAPGKGLEWVSAISISGGSTFYADSVKGRFTISRDNSKNTLYLQMNSLRAEDTAVYYCRGYSGYVYDAFDFWGQGTMVTVSS VL: DIQMTQSPSSLSASVGDRVTITCRASQGISNWLAWYQQKPEKAPKSLIYAASSLQSGVPSRFSGSGSGTDFTLTISSLQPEDFATYYCQQYNSYPLTFGGGTKVEIK", "values": [{"measurement": "binding", "setting": "[1]", "value": "binds"}, {"measurement": "binding", "setting": "[2]", "value": "binds"}]}
{"binder": "IgG1-AXL-183 (antibody, V domains shown) VH: QVQLQQWGAGLLKPSETLSLTCAVYGGSFSGYYWSWIRQPPGKGLEWIGEINQSGSTNYNPSLKSRVTISVDTSKNQFSLKLSSVTAADTSVYYCASGNWDHFFDYWGQGTLVTVSS VL: DIQMTQSPSSVSASVGDRVTITCRASQGISSWLAWYQHKPGKAPKLLIYATSSLQSGVTSRFSGSGSGTDFTLTISSLQPEDFATYYCQQAKSFPWTFGQGTKVEIK", "values": [{"measurement": "binding", "setting": "[1]", "value": "binds"}, {"measurement": "binding", "setting": "[2]", "value": "binds"}]}
{"binder": "IgG1-AXL-733 (antibody, V domains shown) VH: QVQLVESGGGVVQPGRSLRLSCAASGFSFSTYAMHWVRQAPGKGLEWVAVISYDGDNKYSADSVKGRFTISRDNSKNTLYLQMNSLRAEDTAVYYCARGRKLGIDAFDIWGQGTMVTVSS VL: AIQLTQSPSSLSASVGDRVTITCRASQGISSALAWYQQKPGKAPKLLIYDASSLESGVPSRFSGSGSGTDFTLTISGLQPEDFATYYCQQFNSYPFTFGPGTKVDIK", "values": [{"measurement": "binding", "setting": "[1]", "value": "binds"}, {"measurement": "binding", "setting": "[2]", "value": "binds"}]}
{"binder": "IgG1-AXL-183-N52Q (antibody, V domains shown) VH: QVQLQQWGAGLLKPSETLSLTCAVYGGSFSGYYWSWIRQPPGKGLEWIGEIQQSGSTNYNPSLKSRVTISVDTSKNQFSLKLSSVTAADTSVYYCASGNWDHFFDYWGQGTLVTVSS VL: DIQMTQSPSSVSASVGDRVTITCRASQGISSWLAWYQHKPGKAPKLLIYATSSLQSGVTSRFSGSGSGTDFTLTISSLQPEDFATYYCQQAKSFPWTFGQGTKVEIK", "values": [{"measurement": "binding", "setting": "[1]", "value": "binds"}]}
